Laboratory results taken from article PMC4707031.
These are yes or no findings as the source states them, for the method shown. Binding seen in cells or lysates may run through a third protein. Some entries that bind do so weakly or less than the wild type. Sequences can lack the tags named with a protein. One block for each molecule: values may come before it.

Sequences of proteins named here, by UniProt entry; tags and fusion partners are left off.
UniProt P49674: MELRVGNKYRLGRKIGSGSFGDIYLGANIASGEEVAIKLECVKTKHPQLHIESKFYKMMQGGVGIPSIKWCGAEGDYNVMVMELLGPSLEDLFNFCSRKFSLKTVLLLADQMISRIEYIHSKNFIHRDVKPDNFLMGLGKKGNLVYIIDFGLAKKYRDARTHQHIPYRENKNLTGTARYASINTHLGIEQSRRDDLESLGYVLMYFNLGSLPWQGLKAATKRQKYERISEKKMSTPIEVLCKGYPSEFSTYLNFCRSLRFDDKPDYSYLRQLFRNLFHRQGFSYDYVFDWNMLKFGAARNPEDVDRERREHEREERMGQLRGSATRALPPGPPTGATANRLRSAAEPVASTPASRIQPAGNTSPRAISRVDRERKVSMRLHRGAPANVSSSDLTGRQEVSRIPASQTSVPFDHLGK

Columns and labels:
[1] = target: T1, C-terminal FLAG-tagged mouse FAM83H (pCMV-Tag4A-Fam83h) (mouse) (UniProt Q148V8); test: co-IP; Mouse FAM83H-FLAG expressed in HEK293 cells; anti-FLAG immunoprecipitation from lysate; immunoblot for endogenous CK1δ and CK1ε
T1 sequence: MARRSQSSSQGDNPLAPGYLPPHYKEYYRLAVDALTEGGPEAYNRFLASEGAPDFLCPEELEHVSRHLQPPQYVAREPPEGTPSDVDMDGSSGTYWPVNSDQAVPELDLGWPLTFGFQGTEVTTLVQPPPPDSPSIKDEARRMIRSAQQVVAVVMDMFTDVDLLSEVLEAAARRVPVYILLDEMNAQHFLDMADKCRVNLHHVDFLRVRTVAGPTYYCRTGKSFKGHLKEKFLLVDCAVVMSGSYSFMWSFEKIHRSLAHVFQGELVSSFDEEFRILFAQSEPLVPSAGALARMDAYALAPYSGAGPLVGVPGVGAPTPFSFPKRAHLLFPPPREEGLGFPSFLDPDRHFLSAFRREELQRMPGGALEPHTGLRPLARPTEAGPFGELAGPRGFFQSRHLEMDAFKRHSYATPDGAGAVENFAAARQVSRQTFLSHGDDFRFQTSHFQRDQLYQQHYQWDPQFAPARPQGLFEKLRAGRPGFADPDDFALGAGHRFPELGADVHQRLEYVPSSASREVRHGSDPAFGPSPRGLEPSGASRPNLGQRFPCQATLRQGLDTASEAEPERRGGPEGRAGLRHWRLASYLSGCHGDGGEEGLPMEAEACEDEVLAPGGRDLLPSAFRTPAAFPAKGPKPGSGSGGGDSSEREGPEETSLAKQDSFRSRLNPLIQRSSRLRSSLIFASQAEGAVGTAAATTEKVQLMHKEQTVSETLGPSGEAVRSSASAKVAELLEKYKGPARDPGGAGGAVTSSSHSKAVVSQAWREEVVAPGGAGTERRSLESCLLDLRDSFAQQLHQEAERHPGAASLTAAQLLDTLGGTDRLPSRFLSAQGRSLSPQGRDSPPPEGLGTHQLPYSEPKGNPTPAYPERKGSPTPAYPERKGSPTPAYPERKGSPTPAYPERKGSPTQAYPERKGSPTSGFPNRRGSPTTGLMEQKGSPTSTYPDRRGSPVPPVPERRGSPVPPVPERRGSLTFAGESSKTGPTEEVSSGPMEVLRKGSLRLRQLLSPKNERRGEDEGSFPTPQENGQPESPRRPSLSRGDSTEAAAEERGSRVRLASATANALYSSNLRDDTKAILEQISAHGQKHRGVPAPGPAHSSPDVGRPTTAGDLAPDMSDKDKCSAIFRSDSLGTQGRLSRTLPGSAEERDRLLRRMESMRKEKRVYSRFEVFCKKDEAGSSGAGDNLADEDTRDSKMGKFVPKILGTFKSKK

[2] = target: T2, N-terminal FLAG-tagged mouse FAM83H^1-287 (pCMV-Tag2B-Fam83h^1-287) (mouse) (UniProt Q148V8); test: co-IP; FLAG-tagged FAM83H construct and Myc-tagged partner co-expressed in HEK293 cells; NP40 lysate; anti-FLAG antibody on protein A Dynabeads, 30 min at room temperature, washed twice; immunoblot with anti-Myc (or anti-CK1ε)
T2 sequence: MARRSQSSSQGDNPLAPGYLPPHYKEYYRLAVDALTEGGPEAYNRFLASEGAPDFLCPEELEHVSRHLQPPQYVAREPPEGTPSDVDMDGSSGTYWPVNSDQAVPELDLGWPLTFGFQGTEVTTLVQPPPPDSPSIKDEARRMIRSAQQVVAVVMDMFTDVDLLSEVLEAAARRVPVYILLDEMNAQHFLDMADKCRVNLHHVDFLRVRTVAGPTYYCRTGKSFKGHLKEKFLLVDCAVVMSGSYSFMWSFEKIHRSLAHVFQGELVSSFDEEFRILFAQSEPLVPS

[3] = target: T3, N-terminal FLAG-tagged full-length mouse FAM83H (pCMV-Tag2B-Fam83h) (mouse) (UniProt Q148V8); test: as above
T3 sequence: T1 sequence

[4] = target: T1, C-terminal FLAG-tagged mouse FAM83H (pCMV-Tag4A-Fam83h) (mouse); test: as above
[5] = target: T4, N-terminal FLAG-tagged mouse FAM83H^1-697 (pCMV-Tag2B-Fam83h^1-697) (mouse) (UniProt Q148V8); test: as above
T4 sequence: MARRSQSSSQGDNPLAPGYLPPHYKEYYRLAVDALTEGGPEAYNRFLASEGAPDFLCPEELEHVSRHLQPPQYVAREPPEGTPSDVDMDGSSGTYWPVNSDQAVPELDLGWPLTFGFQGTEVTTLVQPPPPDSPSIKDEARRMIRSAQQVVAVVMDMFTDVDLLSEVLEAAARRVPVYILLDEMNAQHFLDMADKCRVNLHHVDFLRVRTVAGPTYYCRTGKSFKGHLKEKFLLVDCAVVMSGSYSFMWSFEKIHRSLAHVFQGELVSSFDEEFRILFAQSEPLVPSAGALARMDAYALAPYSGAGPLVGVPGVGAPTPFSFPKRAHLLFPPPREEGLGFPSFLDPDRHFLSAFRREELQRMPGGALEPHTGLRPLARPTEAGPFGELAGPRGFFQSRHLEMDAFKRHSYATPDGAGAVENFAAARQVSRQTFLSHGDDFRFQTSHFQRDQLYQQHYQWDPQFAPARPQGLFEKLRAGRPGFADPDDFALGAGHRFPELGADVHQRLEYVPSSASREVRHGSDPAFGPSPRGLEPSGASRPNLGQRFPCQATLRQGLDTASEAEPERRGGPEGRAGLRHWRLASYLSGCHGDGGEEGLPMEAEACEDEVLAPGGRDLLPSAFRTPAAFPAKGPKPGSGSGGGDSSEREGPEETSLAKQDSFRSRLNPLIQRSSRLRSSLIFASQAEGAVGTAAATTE

binding [1]: binds
Molecule: Casein kinase 1 epsilon (CK1ε), endogenous in HEK293 cells (from UniProt P49674 1-416) (enzyme)

binding [2]: binds | binding [3]: binds | binding [4]: binds | binding [5]: binds
B1: C-terminal Myc-tagged mouse FAM83H (pCMV-Tag5A-Fam83h) (protein, UniProt Q148V8 1-1209)
chain: T1 sequence
